Source: publication PMC8169668, “Discovery of a cooperative mode of inhibiting RIPK1 kinase” (Cell Discovery, 2021)
These are yes or no findings as the source states them, for the method shown. Binding seen in cells or lysates may run through a third protein. Some results given as binding are weak or reduced against the parent protein; the word gives no strength.

Protein sequences, listed by entry. Tags and fused reporters are not part of them. Lines headed by an entry give the natural chain unless they say otherwise; changes in a name come on top. Residues count along the entry.
UniProt P01375, residues 77-233: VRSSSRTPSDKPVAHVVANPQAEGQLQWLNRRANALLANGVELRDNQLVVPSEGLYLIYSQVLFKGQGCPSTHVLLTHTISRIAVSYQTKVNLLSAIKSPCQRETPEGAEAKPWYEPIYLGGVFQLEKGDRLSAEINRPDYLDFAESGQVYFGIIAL
UniProt Q9Y572: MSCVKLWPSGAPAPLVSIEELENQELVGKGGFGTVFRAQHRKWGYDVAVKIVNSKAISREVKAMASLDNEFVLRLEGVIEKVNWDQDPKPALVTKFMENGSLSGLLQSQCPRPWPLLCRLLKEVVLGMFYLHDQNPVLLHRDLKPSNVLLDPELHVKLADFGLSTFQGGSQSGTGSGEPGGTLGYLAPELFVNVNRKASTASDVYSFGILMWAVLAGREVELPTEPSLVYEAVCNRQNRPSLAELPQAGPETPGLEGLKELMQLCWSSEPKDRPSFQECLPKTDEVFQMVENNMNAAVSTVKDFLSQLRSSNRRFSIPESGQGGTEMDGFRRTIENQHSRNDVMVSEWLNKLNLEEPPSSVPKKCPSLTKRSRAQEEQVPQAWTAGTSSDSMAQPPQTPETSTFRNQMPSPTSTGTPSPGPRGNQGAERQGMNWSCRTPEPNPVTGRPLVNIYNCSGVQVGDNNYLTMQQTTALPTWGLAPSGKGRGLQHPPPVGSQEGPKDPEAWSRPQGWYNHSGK
UniProt Q60680: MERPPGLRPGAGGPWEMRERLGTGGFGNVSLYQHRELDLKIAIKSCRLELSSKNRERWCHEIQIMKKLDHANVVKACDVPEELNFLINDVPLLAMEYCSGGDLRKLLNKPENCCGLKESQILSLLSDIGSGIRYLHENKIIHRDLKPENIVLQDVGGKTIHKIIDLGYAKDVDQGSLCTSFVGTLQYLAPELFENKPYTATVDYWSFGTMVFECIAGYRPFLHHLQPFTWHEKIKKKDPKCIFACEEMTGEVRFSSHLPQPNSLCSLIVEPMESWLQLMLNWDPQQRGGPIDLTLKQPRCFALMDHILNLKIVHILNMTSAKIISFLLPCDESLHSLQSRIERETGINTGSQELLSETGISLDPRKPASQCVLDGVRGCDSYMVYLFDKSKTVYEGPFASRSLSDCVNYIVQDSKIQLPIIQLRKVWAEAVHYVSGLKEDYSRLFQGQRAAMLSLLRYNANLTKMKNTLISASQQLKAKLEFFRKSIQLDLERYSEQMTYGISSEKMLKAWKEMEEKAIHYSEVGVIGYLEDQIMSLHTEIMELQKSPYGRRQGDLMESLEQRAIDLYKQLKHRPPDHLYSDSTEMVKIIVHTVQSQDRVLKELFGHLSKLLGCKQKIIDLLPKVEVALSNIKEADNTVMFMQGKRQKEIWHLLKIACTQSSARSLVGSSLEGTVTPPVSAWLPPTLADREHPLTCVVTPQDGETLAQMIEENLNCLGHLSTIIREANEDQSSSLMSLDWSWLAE
UniProt Q13546: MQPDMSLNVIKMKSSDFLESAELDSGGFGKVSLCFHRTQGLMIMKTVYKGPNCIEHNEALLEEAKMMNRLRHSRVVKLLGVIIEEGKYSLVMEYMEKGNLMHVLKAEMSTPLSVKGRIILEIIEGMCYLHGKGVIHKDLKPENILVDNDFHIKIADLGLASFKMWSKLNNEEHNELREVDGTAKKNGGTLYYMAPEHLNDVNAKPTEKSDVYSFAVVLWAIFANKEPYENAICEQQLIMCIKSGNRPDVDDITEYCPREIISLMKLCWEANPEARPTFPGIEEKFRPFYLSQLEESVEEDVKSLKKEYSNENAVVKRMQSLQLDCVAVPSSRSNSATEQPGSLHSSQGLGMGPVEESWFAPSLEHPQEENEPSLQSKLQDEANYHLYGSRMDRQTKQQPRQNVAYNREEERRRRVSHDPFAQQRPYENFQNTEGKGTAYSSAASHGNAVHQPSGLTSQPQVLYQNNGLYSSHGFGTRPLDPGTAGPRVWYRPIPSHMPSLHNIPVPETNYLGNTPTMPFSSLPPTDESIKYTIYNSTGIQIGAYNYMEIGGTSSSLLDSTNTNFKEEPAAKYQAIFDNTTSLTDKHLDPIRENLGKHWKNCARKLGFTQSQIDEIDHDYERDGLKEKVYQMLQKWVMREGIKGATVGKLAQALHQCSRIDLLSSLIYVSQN

Key:
[1] = target: Flag-TNFα (UniProt P01375); assay: co-IP; L929 cells given 100 ng/mL Flag-TNFα for the indicated times, with or without 30 min pretreatment with 10 μM Nec-1s or Nec-34; lysed in 0.5% Nonidet P-40 buffer; anti-Flag antibody-conjugated agarose; western blot; only the target purified
[2] = target: RIPK3, human (human (endogenous in Jurkat and HT29)) (UniProt Q9Y572); assay: co-IP; HT29 cells stimulated by TNFα/SM-164/zVAD.fmk, no inhibitor (Supplementary Fig. S2b); told only as 'a consistent result'; details not shown
[3] = target: RIPK3, human (human (endogenous in Jurkat and HT29)) (UniProt Q9Y572); assay: co-IP; FADD-deficient Jurkat cells, 50 ng/mL TNFα for the indicated times, no inhibitor; 0.5% Nonidet P-40 buffer; IP with anti-RIPK3 antibody; western blot

Row | binding [1] | binding [2] | binding [3] | Substance
1 | binds | – | – | IKKα/β (inhibitor of nuclear factor κ-B kinase subunit α/β), mouse (from UniProt Q60680 1-745; O88351 1-757) (complex)
2 | – | binds | binds | receptor-interacting protein kinase 1 (RIPK1), human (from UniProt Q13546 1-671)
